According to patent US9126985B2, “Tetra- and pentasubstituted benzimidazolium compounds” (Boehringer Ingelheim International GmbH, priority 2013, dated 2015):
pIC50: −log10 of the molar value. The match of structure and compound is tentative.

The chains behind the UniProt entries cited, without tags or fusion partners.
UniProt Q61180, whole entry: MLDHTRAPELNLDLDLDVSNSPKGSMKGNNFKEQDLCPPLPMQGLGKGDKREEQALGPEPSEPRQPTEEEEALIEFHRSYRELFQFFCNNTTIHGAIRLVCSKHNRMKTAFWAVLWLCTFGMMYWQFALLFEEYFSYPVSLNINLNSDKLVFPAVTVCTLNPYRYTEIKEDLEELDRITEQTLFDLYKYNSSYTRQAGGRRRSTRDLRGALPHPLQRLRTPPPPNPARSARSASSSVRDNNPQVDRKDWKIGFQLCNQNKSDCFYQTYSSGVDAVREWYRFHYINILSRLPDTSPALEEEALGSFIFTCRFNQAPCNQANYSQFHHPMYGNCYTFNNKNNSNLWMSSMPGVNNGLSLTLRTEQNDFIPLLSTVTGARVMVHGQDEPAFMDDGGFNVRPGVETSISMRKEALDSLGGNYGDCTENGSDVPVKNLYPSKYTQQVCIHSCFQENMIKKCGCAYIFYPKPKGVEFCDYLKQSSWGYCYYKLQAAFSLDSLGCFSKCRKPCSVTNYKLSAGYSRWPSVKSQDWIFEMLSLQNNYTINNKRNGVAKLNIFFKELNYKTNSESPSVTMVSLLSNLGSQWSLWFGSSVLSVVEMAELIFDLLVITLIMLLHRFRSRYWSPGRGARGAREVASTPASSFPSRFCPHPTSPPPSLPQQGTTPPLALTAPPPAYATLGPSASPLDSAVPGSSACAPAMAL
UniProt Q9WU38, whole entry: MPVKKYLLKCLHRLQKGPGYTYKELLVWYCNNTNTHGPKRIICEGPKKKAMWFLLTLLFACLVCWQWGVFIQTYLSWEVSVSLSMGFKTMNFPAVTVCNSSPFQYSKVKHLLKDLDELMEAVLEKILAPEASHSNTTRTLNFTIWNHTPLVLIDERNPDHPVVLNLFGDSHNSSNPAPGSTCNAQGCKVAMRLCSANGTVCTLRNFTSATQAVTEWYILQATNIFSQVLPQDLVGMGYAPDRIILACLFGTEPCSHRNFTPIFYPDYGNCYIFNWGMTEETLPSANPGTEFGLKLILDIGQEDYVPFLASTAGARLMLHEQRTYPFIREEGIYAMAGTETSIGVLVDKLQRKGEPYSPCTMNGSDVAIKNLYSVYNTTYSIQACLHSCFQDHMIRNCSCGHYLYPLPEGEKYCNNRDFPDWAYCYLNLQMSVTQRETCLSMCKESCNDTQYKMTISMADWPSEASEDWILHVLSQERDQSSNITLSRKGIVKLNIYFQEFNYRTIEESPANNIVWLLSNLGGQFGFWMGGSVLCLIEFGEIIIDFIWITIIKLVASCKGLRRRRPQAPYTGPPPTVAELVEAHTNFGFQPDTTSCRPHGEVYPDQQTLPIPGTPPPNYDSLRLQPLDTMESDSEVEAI
UniProt Q9WU39, whole entry: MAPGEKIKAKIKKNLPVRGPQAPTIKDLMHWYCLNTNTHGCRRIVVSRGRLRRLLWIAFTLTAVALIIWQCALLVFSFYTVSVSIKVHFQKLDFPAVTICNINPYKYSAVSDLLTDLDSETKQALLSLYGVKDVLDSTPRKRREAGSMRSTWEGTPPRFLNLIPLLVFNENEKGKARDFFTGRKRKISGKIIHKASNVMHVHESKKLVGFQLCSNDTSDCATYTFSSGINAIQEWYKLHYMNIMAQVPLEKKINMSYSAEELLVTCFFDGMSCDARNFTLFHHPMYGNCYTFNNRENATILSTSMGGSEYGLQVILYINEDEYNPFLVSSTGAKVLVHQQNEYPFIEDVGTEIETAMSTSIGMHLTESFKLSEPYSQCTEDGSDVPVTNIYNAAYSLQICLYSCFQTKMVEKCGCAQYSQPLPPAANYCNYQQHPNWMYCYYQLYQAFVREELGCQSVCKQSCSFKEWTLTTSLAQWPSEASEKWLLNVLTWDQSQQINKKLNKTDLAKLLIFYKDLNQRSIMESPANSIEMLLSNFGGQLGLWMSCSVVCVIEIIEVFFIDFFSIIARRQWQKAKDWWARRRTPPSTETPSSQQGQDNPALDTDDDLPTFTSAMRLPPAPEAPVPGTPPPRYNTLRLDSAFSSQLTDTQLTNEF

How the values were obtained:
[1] = target: ENaC (Epithelial Sodium Channel) (Mus musculus, UniProt Q61180+Q9WU38+Q9WU39); test: Ussing Chamber assay: inhibition of amiloride sensitive short circuit current in M-1 cells; conditions: Mouse kidney M-1 cells on transwell filters, compound added to apical solution, 37° C.
Procedure: Mouse kidney M-1 cells were cultivated in DMEM containing 5% FCS and 5 μM dexamethasone for 10 to 12 days on polyester transwell filters. Filters were inserted into a teflon-coated well-plate which fit into the ussing chamber system. Prior to measurement the medium of M-1 cells was replaced with Caco-2 transport buffer (Invitrogen, Germany). During measurements, the Ussing chamber temperature was kept at 37° C. Short circuit currents (I_sc) were measured in the voltage-clamp mode with the software package Lab View for data acquisition and analysis. The transepithelial electrical resistance (TEER) was determined by the application of voltage steps of ±5 mV every 5 sec. Compounds were administered at a final concentration of 3 μM or at increasing concentrations (1-3-10 μM) to the apical solution. At the end of each experiment the amiloride sensitive I_SC was measured by adding 3 μM amiloride to the apical compartment. Results are expressed as inhibition in percent of the amiloride effect or as IC50.
With the example compounds given above, the following IC50 values were determined in the Ussing Chamber assay: […]

CALU-3 cells = test: Permeability in CALU-3 cells; conditions: CALU-3 cell monolayers, pH 7.4, 37° C., 10 μM compound; for Papp, AB: apical-to-basal; for Papp, BA: basal-to-apical
Procedure: Permeability in CALU-3 Cells:
Permeability measurements across polarized, confluent CALU-3 cell monolayers grown on permeable filter supports are used to provide information on the potential of a compound to pass the lung epithelium. Apparent permeability coefficients (Papp) of the compounds across the CALU-3 cell monolayers are measured (pH 7.4, 37° C.) in apical-to-basal (AB) and basal-to-apical (BA) transport direction.
CALU-3 cells (1-2×10^5 cells/1 cm^2 area) are seeded on filter inserts (Costar transwell polycarbonate filters, 0.4 μm pore size) and cultured (for 10-12 days DMEM) until tight monolayers are formed. Compounds of interest are dissolved in appropriate solvent (DMSO, 10 mM stock solution). Stock solutions are diluted with HTP-4 buffer (128.13 mM NaCl, 5.36 mM KCl, 1 mM MgSO4, 1.8 mM CaCl2, 4.17 mM NaHCO3, 1.19 mM Na2HPO4×7H2O, 0.41 mM NaH2PO4×H2O, 15 mM HEPES, 20 mM glucose, 0.25% BSA, pH 7.4) to prepare the transport solutions (10 μM compound, final DMSO<=0.5%). The transport solution (TL) is applied to the apical or basolateral donor side for measuring A-B or B-A permeability (3 filter replicates), respectively. The receiver side contains the same buffer as the donor side. After 30 min of accommodation, samples are collected at the start t0=0 min and at the end of the experiment tn=90 min from the donor and at 0, 30, 60, and 90 min also from the receiver chamber. Volume removed is replenished by HTP-4 buffer. The compound concentration in the samples is measured by HPLC-MS/MS or scintillation counting. The permeability coefficient (Papp) and efflux ratio are calculated according to: Papp [cm/s]=(concentration receiver [nM]*volume receiver [mL]/time interval [sec])*(1/filter area)*(1/donor concentration [nM])
With example compounds given above, the following permeability values were determined in the CALU-3 cells assay: […]

CCNC(=O)COc1ccc2c(c1)[n+](C1CCOCC1)c(CNC(=O)c1nc(Cl)c(N)nc1N)n2CC
pIC50 ([1]; tested form: formate): 9.00

CCNC(=O)COc1ccc2c(c1)n(CC)c(CNC(=O)c1nc(Cl)c(N)nc1N)[n+]2C1CCOCC1
pIC50 ([1]; tested form: formate): 8.70 | Papp, AB (CALU-3 cells; tested form: formate): <0.5 10^−6 cm/s | Papp, BA (CALU-3 cells; tested form: formate): 0.2 10^−6 cm/s

CCn1c(CNC(=O)c2nc(Cl)c(N)nc2N)[n+](CCOCCOCCO)c2ccc(OCP(C)(C)=O)cc21
pIC50 ([1]; tested form: trifluoroacetate): 7.89 | Papp, AB (CALU-3 cells; tested form: trifluoroacetate): 0.4 10^−6 cm/s | Papp, BA (CALU-3 cells; tested form: trifluoroacetate): 0.1 10^−6 cm/s

CCOP(=O)(CCCOc1ccc2c(c1)n(CC)c(CNC(=O)c1nc(Cl)c(N)nc1N)[n+]2CCCC#N)OCC
pIC50 ([1]; tested form: trifluoroacetate): 8.30 | Papp, AB (CALU-3 cells; tested form: trifluoroacetate): 0.1 10^−6 cm/s | Papp, BA (CALU-3 cells; tested form: trifluoroacetate): 0.4 10^−6 cm/s

CCOP(=O)(O)CCCOc1ccc2c(c1)n(CC)c(CNC(=O)c1nc(Cl)c(N)nc1N)[n+]2CCCC#N
pIC50 ([1]; tested form: trifluoroacetate): 7.72 | Papp, AB (CALU-3 cells; tested form: trifluoroacetate): 0.5 10^−6 cm/s | Papp, BA (CALU-3 cells; tested form: trifluoroacetate): 0.1 10^−6 cm/s
